The assay deals with T1, Tg_CA (Toxoplasma gondii, UniProt S8F479).
T1 construct: gene TGME49_259950; alpha-CA domain, residues 487-830 of an 861-residue protein; E. coli BL21(DE3) codon-plus; about 47 kDa
T1 sequence (S8F479 487-830): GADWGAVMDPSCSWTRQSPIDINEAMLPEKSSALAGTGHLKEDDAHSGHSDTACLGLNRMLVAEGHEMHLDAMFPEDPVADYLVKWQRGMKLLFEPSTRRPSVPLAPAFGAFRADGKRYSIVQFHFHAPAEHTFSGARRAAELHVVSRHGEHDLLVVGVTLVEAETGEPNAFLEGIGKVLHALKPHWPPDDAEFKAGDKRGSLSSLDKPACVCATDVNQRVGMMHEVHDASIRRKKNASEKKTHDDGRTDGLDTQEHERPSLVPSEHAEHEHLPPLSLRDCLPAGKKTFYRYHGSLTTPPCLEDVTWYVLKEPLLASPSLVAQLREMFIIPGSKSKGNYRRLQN
The assay can be described thus: stopped-flow CO2 hydration, phenol red, Cheng-Prusoff. The format is biochemical.

Molecules are shown by their SMILES. Like-named read-outs stand apart in the source and are kept apart here.

The molecule `CCN[C@H]1C[C@H](C)S(=O)(=O)c2sc(S(N)(=O)=O)cc21` [DZA] registered a Ki of 95.3 nM.

For the molecule `CC(=O)Nc1nnc(S(N)(=O)=O)s1` [AAZ, Acetazolamide], the Ki (read-out: KI (nM) ^a / Tg_CA) amounted to 45.7 nM.
